According to the supplement of paper PMC6411743:
± gives the standard deviation of the averaged measurements. Only a part is listed here, and it is no random draw. The list shows a part of the results.

Chains of the proteins cited; added tags and fusions are not shown. Lines headed by an entry give the natural chain unless they say otherwise; changes in a name come on top.
UniProt Q9Y490: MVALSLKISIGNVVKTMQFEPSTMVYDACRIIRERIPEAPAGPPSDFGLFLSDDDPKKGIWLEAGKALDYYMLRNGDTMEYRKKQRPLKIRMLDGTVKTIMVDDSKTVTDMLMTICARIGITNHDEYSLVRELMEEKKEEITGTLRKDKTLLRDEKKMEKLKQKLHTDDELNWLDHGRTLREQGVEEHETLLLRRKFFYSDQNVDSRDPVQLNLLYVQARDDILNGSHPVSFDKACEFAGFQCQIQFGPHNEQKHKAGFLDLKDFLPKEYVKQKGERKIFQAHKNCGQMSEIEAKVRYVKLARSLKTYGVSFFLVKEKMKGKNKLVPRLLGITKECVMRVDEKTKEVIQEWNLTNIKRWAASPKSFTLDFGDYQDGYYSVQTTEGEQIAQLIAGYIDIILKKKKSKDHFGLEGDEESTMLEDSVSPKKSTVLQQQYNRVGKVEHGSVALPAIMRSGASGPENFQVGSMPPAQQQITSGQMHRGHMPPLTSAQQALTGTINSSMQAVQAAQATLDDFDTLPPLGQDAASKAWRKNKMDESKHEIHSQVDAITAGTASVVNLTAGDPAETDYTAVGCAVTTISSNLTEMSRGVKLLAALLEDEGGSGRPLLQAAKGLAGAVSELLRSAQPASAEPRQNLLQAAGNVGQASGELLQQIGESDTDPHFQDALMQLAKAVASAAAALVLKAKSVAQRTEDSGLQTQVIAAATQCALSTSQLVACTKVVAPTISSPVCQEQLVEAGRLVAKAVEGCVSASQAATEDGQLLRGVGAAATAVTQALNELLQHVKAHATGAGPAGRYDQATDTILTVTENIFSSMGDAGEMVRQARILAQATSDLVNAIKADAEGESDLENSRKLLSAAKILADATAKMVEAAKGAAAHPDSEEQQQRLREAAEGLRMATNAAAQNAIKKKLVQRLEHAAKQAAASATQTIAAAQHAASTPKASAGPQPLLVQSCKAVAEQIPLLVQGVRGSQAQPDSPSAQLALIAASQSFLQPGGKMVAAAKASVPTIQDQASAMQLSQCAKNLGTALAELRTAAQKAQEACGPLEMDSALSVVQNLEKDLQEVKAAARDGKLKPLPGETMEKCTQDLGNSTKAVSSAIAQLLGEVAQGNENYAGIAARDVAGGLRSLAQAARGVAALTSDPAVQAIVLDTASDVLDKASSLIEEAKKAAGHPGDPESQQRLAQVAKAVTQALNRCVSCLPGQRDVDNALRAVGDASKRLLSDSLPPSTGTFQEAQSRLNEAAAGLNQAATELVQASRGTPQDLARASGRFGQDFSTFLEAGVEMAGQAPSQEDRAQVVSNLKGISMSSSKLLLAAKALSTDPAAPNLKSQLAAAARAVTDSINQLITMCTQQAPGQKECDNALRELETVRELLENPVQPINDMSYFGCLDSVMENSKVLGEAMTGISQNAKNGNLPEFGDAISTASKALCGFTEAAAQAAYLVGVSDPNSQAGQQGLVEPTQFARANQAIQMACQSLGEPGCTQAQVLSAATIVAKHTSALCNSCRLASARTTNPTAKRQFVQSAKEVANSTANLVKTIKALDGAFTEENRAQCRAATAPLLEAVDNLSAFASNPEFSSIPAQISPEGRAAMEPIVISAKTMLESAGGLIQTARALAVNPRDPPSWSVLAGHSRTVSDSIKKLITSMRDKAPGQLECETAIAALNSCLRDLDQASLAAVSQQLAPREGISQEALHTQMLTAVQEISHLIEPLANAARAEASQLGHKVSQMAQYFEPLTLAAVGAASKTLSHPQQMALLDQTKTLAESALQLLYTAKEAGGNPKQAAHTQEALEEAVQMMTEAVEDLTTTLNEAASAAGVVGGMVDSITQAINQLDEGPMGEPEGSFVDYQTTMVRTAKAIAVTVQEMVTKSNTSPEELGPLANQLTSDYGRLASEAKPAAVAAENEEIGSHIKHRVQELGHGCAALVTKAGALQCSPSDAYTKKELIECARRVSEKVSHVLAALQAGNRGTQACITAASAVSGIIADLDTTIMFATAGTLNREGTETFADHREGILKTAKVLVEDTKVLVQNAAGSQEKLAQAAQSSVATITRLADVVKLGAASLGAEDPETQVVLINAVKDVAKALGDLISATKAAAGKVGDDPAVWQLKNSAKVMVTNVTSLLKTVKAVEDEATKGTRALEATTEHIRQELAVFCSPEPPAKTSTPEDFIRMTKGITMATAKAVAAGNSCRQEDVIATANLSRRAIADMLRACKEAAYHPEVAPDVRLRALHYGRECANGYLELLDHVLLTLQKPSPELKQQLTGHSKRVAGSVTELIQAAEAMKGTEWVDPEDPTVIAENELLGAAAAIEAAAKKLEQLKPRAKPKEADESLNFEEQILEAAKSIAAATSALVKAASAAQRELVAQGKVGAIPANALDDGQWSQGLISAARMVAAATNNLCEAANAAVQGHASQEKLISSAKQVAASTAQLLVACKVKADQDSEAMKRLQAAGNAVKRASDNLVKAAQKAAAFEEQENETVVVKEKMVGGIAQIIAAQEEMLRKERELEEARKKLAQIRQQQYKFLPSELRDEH
UniProt P06493, whole entry, looked up: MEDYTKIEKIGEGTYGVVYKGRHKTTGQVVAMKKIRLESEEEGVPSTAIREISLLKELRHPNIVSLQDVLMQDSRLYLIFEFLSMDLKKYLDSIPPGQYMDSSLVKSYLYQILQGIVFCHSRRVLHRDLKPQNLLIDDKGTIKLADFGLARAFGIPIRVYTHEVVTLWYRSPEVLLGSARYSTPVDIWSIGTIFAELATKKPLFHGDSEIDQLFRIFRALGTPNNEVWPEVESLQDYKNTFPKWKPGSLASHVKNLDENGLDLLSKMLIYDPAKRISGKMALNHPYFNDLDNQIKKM
UniProt Q9Y3D8, whole entry: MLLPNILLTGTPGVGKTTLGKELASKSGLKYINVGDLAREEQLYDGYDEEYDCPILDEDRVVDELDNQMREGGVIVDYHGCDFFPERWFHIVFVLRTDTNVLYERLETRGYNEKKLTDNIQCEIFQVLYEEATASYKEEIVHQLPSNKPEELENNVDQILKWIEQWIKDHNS
UniProt O60841: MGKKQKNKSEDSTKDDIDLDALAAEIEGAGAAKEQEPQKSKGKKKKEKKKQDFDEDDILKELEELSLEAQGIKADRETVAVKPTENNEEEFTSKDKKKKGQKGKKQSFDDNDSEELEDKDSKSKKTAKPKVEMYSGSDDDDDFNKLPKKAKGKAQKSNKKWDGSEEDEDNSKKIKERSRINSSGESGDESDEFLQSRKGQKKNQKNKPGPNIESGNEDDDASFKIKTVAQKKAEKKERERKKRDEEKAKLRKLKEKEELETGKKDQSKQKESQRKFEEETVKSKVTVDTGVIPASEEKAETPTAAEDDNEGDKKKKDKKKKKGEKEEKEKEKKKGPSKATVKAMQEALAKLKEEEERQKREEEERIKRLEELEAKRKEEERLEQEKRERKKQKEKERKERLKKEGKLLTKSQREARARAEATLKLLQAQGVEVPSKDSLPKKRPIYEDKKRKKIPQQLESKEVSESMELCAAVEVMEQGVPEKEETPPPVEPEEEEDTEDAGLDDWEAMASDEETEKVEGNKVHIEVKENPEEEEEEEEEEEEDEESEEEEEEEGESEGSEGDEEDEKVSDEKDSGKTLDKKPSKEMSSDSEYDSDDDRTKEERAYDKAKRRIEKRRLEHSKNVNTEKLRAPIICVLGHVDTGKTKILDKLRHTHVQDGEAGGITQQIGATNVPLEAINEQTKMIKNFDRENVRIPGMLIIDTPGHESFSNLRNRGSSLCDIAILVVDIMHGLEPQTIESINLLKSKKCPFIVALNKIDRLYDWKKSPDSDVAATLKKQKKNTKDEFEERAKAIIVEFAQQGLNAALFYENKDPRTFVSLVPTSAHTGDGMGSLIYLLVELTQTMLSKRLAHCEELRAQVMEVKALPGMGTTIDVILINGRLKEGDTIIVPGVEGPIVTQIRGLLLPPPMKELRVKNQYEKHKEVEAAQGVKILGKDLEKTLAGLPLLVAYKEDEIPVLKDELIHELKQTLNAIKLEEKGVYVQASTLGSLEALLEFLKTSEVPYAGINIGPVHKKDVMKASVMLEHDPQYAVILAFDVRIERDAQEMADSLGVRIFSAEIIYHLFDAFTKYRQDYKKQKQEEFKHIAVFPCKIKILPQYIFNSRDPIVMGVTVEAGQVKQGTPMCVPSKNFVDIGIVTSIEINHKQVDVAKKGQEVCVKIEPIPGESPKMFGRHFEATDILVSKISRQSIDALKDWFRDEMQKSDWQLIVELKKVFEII
UniProt Q99460, whole entry: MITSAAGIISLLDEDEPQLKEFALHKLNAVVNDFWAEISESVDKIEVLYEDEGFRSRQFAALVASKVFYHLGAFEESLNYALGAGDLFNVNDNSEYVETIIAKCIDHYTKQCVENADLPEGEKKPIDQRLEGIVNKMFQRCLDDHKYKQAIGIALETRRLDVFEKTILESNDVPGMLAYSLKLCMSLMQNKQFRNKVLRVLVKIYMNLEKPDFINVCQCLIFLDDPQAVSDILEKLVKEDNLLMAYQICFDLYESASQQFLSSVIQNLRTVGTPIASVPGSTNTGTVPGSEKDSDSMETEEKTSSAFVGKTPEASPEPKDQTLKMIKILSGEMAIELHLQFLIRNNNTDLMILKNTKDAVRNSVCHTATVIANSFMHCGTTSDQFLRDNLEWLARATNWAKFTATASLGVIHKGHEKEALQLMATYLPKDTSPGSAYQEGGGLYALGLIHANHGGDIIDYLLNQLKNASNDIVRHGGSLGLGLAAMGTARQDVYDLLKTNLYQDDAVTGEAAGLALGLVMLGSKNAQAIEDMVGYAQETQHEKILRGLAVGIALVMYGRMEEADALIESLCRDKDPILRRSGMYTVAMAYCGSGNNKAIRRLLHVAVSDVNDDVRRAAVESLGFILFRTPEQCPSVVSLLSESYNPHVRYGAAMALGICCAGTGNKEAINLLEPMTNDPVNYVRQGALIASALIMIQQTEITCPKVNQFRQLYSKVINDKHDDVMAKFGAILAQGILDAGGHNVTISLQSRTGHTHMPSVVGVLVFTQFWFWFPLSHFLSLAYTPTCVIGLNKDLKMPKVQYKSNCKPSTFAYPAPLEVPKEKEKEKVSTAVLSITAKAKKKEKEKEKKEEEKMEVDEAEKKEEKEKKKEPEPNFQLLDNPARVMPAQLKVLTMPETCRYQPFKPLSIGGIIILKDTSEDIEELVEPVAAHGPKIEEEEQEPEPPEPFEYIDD
UniProt Q96PV6, whole entry: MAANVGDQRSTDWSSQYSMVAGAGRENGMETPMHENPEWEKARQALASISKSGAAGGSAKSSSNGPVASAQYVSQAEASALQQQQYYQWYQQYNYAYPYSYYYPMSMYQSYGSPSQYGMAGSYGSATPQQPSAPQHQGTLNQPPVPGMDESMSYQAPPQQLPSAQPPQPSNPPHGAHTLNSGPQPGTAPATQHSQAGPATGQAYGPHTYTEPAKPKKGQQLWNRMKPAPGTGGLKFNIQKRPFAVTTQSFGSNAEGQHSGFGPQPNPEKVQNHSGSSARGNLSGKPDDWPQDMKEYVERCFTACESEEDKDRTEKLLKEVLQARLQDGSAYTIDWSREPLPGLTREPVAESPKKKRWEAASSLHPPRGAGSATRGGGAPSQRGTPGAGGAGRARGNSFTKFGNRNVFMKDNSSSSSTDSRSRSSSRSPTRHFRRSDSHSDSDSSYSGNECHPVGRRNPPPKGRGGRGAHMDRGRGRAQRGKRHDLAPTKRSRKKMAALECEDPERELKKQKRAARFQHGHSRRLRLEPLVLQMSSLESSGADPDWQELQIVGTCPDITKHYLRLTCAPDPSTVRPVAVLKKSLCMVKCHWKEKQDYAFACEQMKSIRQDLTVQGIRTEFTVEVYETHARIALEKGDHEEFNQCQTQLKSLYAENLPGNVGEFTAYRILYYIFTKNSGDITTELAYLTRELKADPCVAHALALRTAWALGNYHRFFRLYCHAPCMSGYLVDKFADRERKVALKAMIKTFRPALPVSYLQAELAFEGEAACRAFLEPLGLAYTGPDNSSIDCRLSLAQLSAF
UniProt P01106: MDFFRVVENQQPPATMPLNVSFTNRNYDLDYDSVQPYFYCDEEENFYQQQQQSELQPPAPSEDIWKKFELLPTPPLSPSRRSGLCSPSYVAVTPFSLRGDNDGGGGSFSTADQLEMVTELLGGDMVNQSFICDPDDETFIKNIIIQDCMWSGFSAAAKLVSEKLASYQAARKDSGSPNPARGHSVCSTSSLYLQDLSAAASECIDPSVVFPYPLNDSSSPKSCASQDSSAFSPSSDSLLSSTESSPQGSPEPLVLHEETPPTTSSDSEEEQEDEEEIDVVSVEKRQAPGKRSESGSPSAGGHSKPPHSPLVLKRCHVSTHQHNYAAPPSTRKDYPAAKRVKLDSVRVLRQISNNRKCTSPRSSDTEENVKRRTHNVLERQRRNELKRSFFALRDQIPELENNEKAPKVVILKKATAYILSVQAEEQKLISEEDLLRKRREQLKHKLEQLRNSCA
UniProt Q96A57: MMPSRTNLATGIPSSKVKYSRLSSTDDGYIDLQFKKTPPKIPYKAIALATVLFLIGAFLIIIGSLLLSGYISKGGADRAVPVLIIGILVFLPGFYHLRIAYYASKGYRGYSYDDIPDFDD

Assays:
adenosine triphosphate = compound: Nc1ncnc2c1ncn2[C@@H]1O[C@H](COP(=O)(O)OP(=O)(O)OP(=O)(O)O)[C@@H](O)[C@H]1O [adenosine triphosphate]; experiment: NP40-soluble protein abundance relative to vehicle (solubility fold change) (ratio); higher = more soluble protein in presence of ATP
Summary of the method: (§1)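 Each value is a fold change relative to the detergent-processed vehicle, calculated per replicate from vsn-normalised intensities. Jurkat crude lysate received eight concentrations (0.1 to 10 mM) for 10 min at room temperature and 3 min at 37 °C, then was solubilised in 0.8% NP40 with benzonase (60 min, 4 °C). The ultracentrifuged supernatant was TMT-labelled and run by LC-MS/MS in three independent experiments.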

guanosine triphosphate = compound: Nc1nc2c(ncn2[C@@H]2O[C@H](COP(=O)(O)OP(=O)(O)OP(=O)(O)O)[C@@H](O)[C@H]2O)c(=O)[nH]1 [guanosine triphosphate]; experiment: NP40-soluble protein abundance relative to vehicle (solubility fold change) (ratio); higher = more soluble protein in presence of GTP
Summary of the method: as §1

Target	NP40-soluble protein abundance (adenosine triphosphate; concentration: 1mM)	NP40-soluble protein abundance (adenosine triphosphate; concentration: 2mM)	NP40-soluble protein abundance (adenosine triphosphate; concentration: 4mM)	NP40-soluble protein abundance (adenosine triphosphate; concentration: 6mM)	NP40-soluble protein abundance (adenosine triphosphate; concentration: 8mM)	NP40-soluble protein abundance (adenosine triphosphate; concentration: 10mM)	NP40-soluble protein abundance (guanosine triphosphate; concentration: 0.1mM)	NP40-soluble protein abundance (guanosine triphosphate; concentration: 0.5mM)	NP40-soluble protein abundance (guanosine triphosphate; concentration: 1mM)	NP40-soluble protein abundance (guanosine triphosphate; concentration: 2mM)	NP40-soluble protein abundance (guanosine triphosphate; concentration: 4mM)	NP40-soluble protein abundance (guanosine triphosphate; concentration: 6mM)	NP40-soluble protein abundance (guanosine triphosphate; concentration: 8mM)	NP40-soluble protein abundance (guanosine triphosphate; concentration: 10mM)
CCDC9 (UniProt Q9Y3X0)	1.11 ± 0.12	1.17 ± 0.094	1.2 ± 0.07	1.35 ± 0.17	1.26 ± 0.083	1.27 ± 0.066								
UniProt Q9Y4G8 and related entries	0.976 ± 0.1	0.942 ± 0.051	1.02 ± 0.092	1.02 ± 0.086	0.945 ± 0.051	0.972 ± 0.054								
UniProt Q9Y2U5	1.01 ± 0.029	0.99 ± 0.016	0.995 ± 0.026	0.943 ± 0.05	0.94 ± 0.054	0.938 ± 0.025								
UniProt Q9Y2X9 and related entries	1.01 ± 0.043	0.975 ± 0.07	0.987 ± 0.1	1.06 ± 0.11	0.971 ± 0.09	0.98 ± 0.051								
TLN1 (UniProt Q9Y490)	0.961 ± 0.036	0.946 ± 0.0097	0.911 ± 0.015	0.97 ± 0.017	0.924 ± 0.02	0.918 ± 0.019								
ARFGEF1 (UniProt Q9Y6D6)	1.02 ± 0.032	0.9883 ± 0.0067	0.9571 ± 0.0088	0.975 ± 0.023	0.971 ± 0.044	0.955 ± 0.025								
A0A087WU62|A0A087X2D5|A0A0G2JMS5|Q9BRJ2 (UniProt Q9BRJ2)							1.12 ± 0.036	1.09 ± 0.13	1.18 ± 0.13	1.2 ± 0.15	1.2 ± 0.18	1.14 ± 0.13	1.23 ± 0.17	1.16 ± 0.23
A0A024QZP7|P06493 (UniProt P06493)							0.954 ± 0.049	0.985 ± 0.034	0.925 ± 0.044	0.909 ± 0.029	0.908 ± 0.055	0.9 ± 0.046	0.886 ± 0.06	0.875 ± 0.058
A0A024R4N9|A0A0G2JNK5|A9C4B9 and related entries (UniProt Q9BSV6)							1.08 ± 0.069	0.9936 ± 0.0093	1.01 ± 0.088	0.961 ± 0.045	0.967 ± 0.048	1.01 ± 0.031	1.03 ± 0.034	0.966 ± 0.016
A0A087WT20|B3KME9 and related entries (UniProt Q9NV06)							1.01 ± 0.16	0.951 ± 0.17	0.98 ± 0.17	0.949 ± 0.18	0.964 ± 0.15	0.884 ± 0.13	0.905 ± 0.068	0.933 ± 0.13
A0A087WVD7|Q9Y3D8 and related entries (UniProt Q9Y3D8)							0.963 ± 0.02	0.876 ± 0.0094	0.983 ± 0.065	0.984 ± 0.073	0.967 ± 0.082	0.956 ± 0.11	0.896 ± 0.12	0.948 ± 0.065
A0A087WUT6|O60841 (UniProt O60841)							0.959 ± 0.057	0.96 ± 0.071	0.95 ± 0.069	0.9 ± 0.091	0.914 ± 0.073	0.929 ± 0.095	0.969 ± 0.063	0.924 ± 0.092
A0A087WUL0|Q3LXA3 (UniProt Q3LXA3)							0.988 ± 0.11	0.963 ± 0.11	0.978 ± 0.14	0.928 ± 0.12	0.948 ± 0.11	0.96 ± 0.16	0.96 ± 0.1	0.951 ± 0.097
A0A087WSV8|Q5URX0 and related entries (UniProt V9HW75+Q5URX0)							0.882 ± 0.062	0.854 ± 0.05	0.999 ± 0.068	1.04 ± 0.12	1.02 ± 0.073	1.05 ± 0.15	1 ± 0.14	1.29 ± 0.29
A0A087WVM4|B7ZM99 (UniProt Q6UB35)							1 ± 0.017	1.01 ± 0.029	0.945 ± 0.014	0.938 ± 0.033	0.937 ± 0.013	0.918 ± 0.01	0.892 ± 0.029	0.866 ± 0.062
A0A087WVX9|O00221 and related entries (UniProt O00221)							1.01 ± 0.085	0.953 ± 0.027	0.958 ± 0.049	0.966 ± 0.049	0.964 ± 0.11	0.966 ± 0.12	0.974 ± 0.095	0.914 ± 0.088
A0A087WVT6|Q9BWW4 and related entries (UniProt Q9BWW4)							1.14 ± 0.36	1.14 ± 0.19	1.11 ± 0.14	1 ± 0.15	0.955 ± 0.12	0.906 ± 0.25	1.16 ± 0.029	1.28 ± 0.38
A0A087WUI6|Q8WXW3 (UniProt Q8WXW3)							1.06 ± 0.046	0.885 ± 0.045	1.034 ± 0.0025	1.005 ± 0.01	0.942 ± 0.061	0.954 ± 0.064	0.932 ± 0.063	0.983 ± 0.013
DIS3 (UniProt Q9Y2L1)	1.03 ± 0.085	0.993 ± 0.083	0.978 ± 0.072	0.95 ± 0.096	1.03 ± 0.056	0.997 ± 0.056								
A0A087WT44|P30519 and related entries (UniProt P30519)							0.916 ± 0.059	0.91 ± 0.071	0.954 ± 0.074	0.909 ± 0.1	0.9 ± 0.094	0.893 ± 0.098	0.887 ± 0.075	0.894 ± 0.077

Target	NP40-soluble protein abundance (adenosine triphosphate; concentration: 1mM)	NP40-soluble protein abundance (adenosine triphosphate; concentration: 2mM)	NP40-soluble protein abundance (adenosine triphosphate; concentration: 4mM)	NP40-soluble protein abundance (adenosine triphosphate; concentration: 6mM)	NP40-soluble protein abundance (adenosine triphosphate; concentration: 8mM)	NP40-soluble protein abundance (adenosine triphosphate; concentration: 10mM)	NP40-soluble protein abundance (guanosine triphosphate; concentration: 0.1mM)	NP40-soluble protein abundance (guanosine triphosphate; concentration: 0.5mM)	NP40-soluble protein abundance (guanosine triphosphate; concentration: 1mM)	NP40-soluble protein abundance (guanosine triphosphate; concentration: 2mM)	NP40-soluble protein abundance (guanosine triphosphate; concentration: 4mM)	NP40-soluble protein abundance (guanosine triphosphate; concentration: 6mM)	NP40-soluble protein abundance (guanosine triphosphate; concentration: 8mM)	NP40-soluble protein abundance (guanosine triphosphate; concentration: 10mM)
A0A087WWH3|Q9NZM4 and related entries (UniProt Q9NZM4)							1.06 ± 0.018	0.989 ± 0.1	1.16 ± 0.19	1.22 ± 0.1	1.22 ± 0.15	1.13 ± 0.33	1.2 ± 0.44	1.33 ± 0.38
A0A087WTW5|Q9UKL3 (UniProt Q9UKL3)							1.02 ± 0.082	1.02 ± 0.06	1.06 ± 0.052	1.05 ± 0.034	1.05 ± 0.11	1.03 ± 0.049	1.13 ± 0.069	1.06 ± 0.11
A0A087WTV6|Q96C36 (UniProt Q96C36)							0.946 ± 0.036	0.974 ± 0.032	1 ± 0.066	1 ± 0.071	0.999 ± 0.062	1.02 ± 0.1	1.01 ± 0.093	1.01 ± 0.11
A0A024R4Q5|G5E9B5 and related entries (UniProt P0C1Z6)							1.12 ± 0.14	1.05 ± 0.099	1.09 ± 0.17	1.16 ± 0.21	1.15 ± 0.25	1.2 ± 0.13	1.21 ± 0.19	1.18 ± 0.14
A0A087WWM4|F8WAN9 and related entries (UniProt Q9P2T1)							1.06 ± 0.058	1.06 ± 0.08	1 ± 0.077	1 ± 0.053	0.994 ± 0.051	0.978 ± 0.068	1.01 ± 0.071	0.985 ± 0.051
A0A087WW77|Q15334 (UniProt Q15334)							1.07 ± 0.14	1.1 ± 0.071	1.058 ± 0.0032	1.11 ± 0.036	1.01 ± 0.066	1.03 ± 0.024	1.06 ± 0.051	1.08 ± 0.026
A0A087WTT6|P62273 and related entries (UniProt P62273)							0.92 ± 0.14	0.977 ± 0.14	1.16 ± 0.29	1.1 ± 0.19	0.953 ± 0.29	0.957 ± 0.27	0.663 ± 0.15	0.939 ± 0.29
A0A087WT12|A0A087X2I2|P36969 and related entries (UniProt P36969)							0.981 ± 0.024	0.966 ± 0.021	0.922 ± 0.045	0.924 ± 0.012	0.959 ± 0.043	0.932 ± 0.037	0.919 ± 0.063	0.873 ± 0.069
A0A087WW66|Q99460 (UniProt Q99460)							1.02 ± 0.089	1.09 ± 0.13	1.04 ± 0.15	1.11 ± 0.19	1.09 ± 0.15	1.12 ± 0.2	1.1 ± 0.19	1.08 ± 0.19
A0A087WUU9|P47974 (UniProt P47974)							1.06 ± 0.07	1.02 ± 0.026	1.09 ± 0.071	1.12 ± 0.05	1.06 ± 0.046	1.03 ± 0.033	1.04 ± 0.027	1.06 ± 0.028
A0A087WTE7|A0A087WUE4|C9JMY0 and related entries (UniProt Q96PV6)							0.977 ± 0.043	0.967 ± 0.039	1.03 ± 0.021	1.02 ± 0.083	1.09 ± 0.064	1.14 ± 0.066	1.26 ± 0.089	1.29 ± 0.17
A0A087WUS5|H0YBT0 and related entries (UniProt P01106)							0.9543 ± 0.0078	0.981 ± 0.13	1.03 ± 0.056	0.973 ± 0.032	1.1 ± 0.15	1.11 ± 0.068	0.967 ± 0.047	0.991 ± 0.021
A0A087WUL2 (UniProt P49720)							1.01 ± 0.088	1.03 ± 0.12	0.929 ± 0.16	1.04 ± 0.24	1.09 ± 0.28	1 ± 0.28	0.958 ± 0.14	0.974 ± 0.13
A0A087WU64|A6NMQ1 and related entries (UniProt P09884)							1.06 ± 0.025	1.07 ± 0.035	1.01 ± 0.047	1.02 ± 0.057	1.01 ± 0.033	0.994 ± 0.028	1.01 ± 0.051	0.973 ± 0.029
A0A087WT30|Q8N5I9 (UniProt Q8N5I9)							0.984 ± 0.045	1.12 ± 0.12	1.5 ± 0.091	1.4 ± 0.037	1.4 ± 0.025	1.43 ± 0.076	1.44 ± 0.057	1.48 ± 0.046
A0A087WWA3|O60333 and related entries (UniProt Q4R9M9+O60333)							1.11 ± 0.085	1.09 ± 0.15	1.1 ± 0.17	1.03 ± 0.093	1.04 ± 0.092	0.99 ± 0.1	1.05 ± 0.13	0.965 ± 0.11
A0A087WSW9|A0A087WSY9|E9PIR7 and related entries (UniProt Q16881)							0.99 ± 0.03	1.01 ± 0.041	0.918 ± 0.026	0.928 ± 0.049	0.88 ± 0.037	0.9 ± 0.041	0.847 ± 0.022	0.854 ± 0.059
A0A087WTT2|Q5JWB9 and related entries (UniProt Q96A57)							0.923 ± 0.011	0.971 ± 0.045	0.846 ± 0.028	0.725 ± 0.078	0.686 ± 0.09	0.703 ± 0.094	0.655 ± 0.13	0.703 ± 0.076
A0A087WUZ9|H7BZR7 and related entries (UniProt Q16760)							0.988 ± 0.026	0.993 ± 0.061	0.949 ± 0.036	0.993 ± 0.062	1.01 ± 0.081	0.911 ± 0.12	1 ± 0.017	0.953 ± 0.071
A0A087WUS0|E7ETK0 and related entries (UniProt P62847)							0.977 ± 0.12	1.09 ± 0.18	1.08 ± 0.26	1.03 ± 0.26	0.886 ± 0.27	0.893 ± 0.28	0.708 ± 0.22	0.839 ± 0.28

Copied from the list.
For NP40-soluble protein abundance (guanosine triphosphate; concentration: 2mM), A0A087WW66|Q99460 (UniProt Q99460) has the entry 1.11 ± 0.19
For NP40-soluble protein abundance (guanosine triphosphate; concentration: 1mM), A0A087WUS5|H0YBT0 and related entries (UniProt P01106) has the entry 1.03 ± 0.056
